From patent US20240425606A1, “ANTI-IL-11RA ANTIBODIES” (Lassen Therapeutics 1, Inc., priority 2021, published 2024)
Residue numbers refer to the chain shown, from its start. Names and notes keep the numbering of the source. These are yes or no findings as the source states them, for the method shown. Some binding calls cover weakened binding; strength is not graded here.

T1: human IL-11Rα (human, UniProt Q14626 23-363, limits assumed)
T1 construct: Protein coated on ELISA plates and used in solution for BLI; also called hIL-11Rα; hIL-11R
T1 sequence: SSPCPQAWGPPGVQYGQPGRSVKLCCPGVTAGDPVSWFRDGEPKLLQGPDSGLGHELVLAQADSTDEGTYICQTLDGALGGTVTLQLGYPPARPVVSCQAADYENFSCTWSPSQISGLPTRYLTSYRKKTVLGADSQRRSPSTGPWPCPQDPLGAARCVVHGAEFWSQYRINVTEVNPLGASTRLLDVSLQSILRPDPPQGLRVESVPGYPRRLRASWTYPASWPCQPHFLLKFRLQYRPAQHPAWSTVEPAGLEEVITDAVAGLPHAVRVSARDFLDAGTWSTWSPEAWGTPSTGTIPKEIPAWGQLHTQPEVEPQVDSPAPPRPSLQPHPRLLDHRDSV

B1: mAb23 (antibody, human IgG4, V domains shown)
VH: EVQLLESGGGLVQPGGSLRLSCAASGFTFSKYSMTWVRQAPGKGLEWVSSIVPYGDLTQYADSVKGRFTISRDNSKNTLYLQMNSLRAEDTAVYYCAKGPGWGSFDLWGRGTLVTVSS
VL: DIQMTQSPSSLSASVGDRVTITCQASQDINNYLNWYQQKPGKAPKLLIYDASNLQTGVPSRFSGSGSGTDFTFTISSLQPEDIATYYCQQHESQSPTFGPGTKVDIK
notes: Expressed as human IgG4 (S228P EU)
B2: mAb31 (antibody, human IgG4, V domains shown)
VH: B1 VH with K31V
VL: B1 VL
notes: as for B1
B3: mAb21 (antibody, human IgG4, V domains shown)
VH: B1 VH with K31H
VL: B1 VL
notes: as for B1
B4: mAb29 (antibody, human IgG4, V domains shown)
VH: B1 VH with K31S
VL: B1 VL
notes: as for B1
B5: mAb14 (antibody, V domains shown)
VH: B1 VH with K31W, D62E
VL: B1 VL
notes: as for B1
B6: mAb15 (antibody, V domains shown)
VH: B1 VH with K31W
VL: B1 VL with S93T, S95T
notes: as for B1

Target: T1, human IL-11Rα
Test: BLI (Octet RED96e), AHC biosensors, qualitative assessment against mAb5

binding, binds:
B1
B2
B3
B4

Target: T1, human IL-11Rα
Test: BLI (Octet RED96e), mAb on protein G biosensors, hIL-11Rα in solution
Protocol: Association was carried out in the presence of a 2-fold dilution series of hIL-11Rα and was allowed to proceed for 120 seconds; dissociation was measured for 300 to 1200 seconds.

binding, binds:
B5
B6

Target: T1, human IL-11Rα
Test: ELISA (format not described)

binding, binds:
B1
B2
B3
B4
